Measurements taken from patent US8715920B2, “Composition for preserving platelets during photosensitization” (Biovec Transfusion, LLC, priority 2010, dated 2014).
Some compounds share one wording; it may come from a single statement. Positions of bridges follow the written chain, without caps; N, C: chain ends. Non-standard residues stand in square brackets, D forms with d. Residues, ends and D or L forms follow the SMILES beside them. hArg = N=C(N)NCCCC[C@H](N)C(=O)O; Mpa = O=C(O)CCS

assay: Removal of preservative agents from platelet solutions by diafiltration, HPLC detection; design: species or system human; details: after diafiltration, 4 volume discontinuous plus 10 volume constant volume exchange

Row | SMILES | removal from platelet preservation solution
1 | CCCCS(=O)(=O)N[C@@H](Cc1ccc(OCCCCC2CCNCC2)cc1)C(=O)O [Tirofiban] | below the level of detection
2 | CC1CNc2c(cccc2S(=O)(=O)N[C@@H](CCCNC(=N)N)C(=O)N2CC[C@@H](C)C[C@@H]2C(=O)O)C1 (stereo partly drawn) [Argatroban] | below the level of detection
3 | N=C(N)NCCCC[C@@H]1NC(=O)CCSSC[C@@H](C(N)=O)NC(=O)[C@@H]2CCCN2C(=O)[C@H](Cc2c[nH]c3ccccc23)NC(=O)[C@H](CC(=O)O)NC(=O)CNC1=O [Eptifibatide] ([Mpa][hArg]GDWPC-NH2; disulfide 1-7) | below the level of detection
